From PMC10669572, “Norlobaridone Inhibits Quorum Sensing-Dependent Biofilm Formation and Some Virulence Factors in Pseudomonas aeruginosa by Disrupting Its Transcriptional Activator Protein LasR Dimerization” (Biomolecules, 2023)
These are yes or no findings as the source states them, for the method shown.

Target: LasR (Pseudomonas aeruginosa transcriptional activator protein, LuxR-type quorum sensing receptor) (P. aeruginosa) (UniProt P25084)
Experiment: condition: only with 100 μM NBD (LasR produced and measured with NBD instead of odDHL); AUC; sedimentation velocity, 141,900 x g, 20 °C, 20 mM Hepes pH 7.5, 100 mM NaCl; LasR 0.5 and 1 mg/mL produced with and in the presence of 100 μM NBD; c(S) and c(M) distributions in SEDFIT; both purified

B1: LasR (Pseudomonas aeruginosa transcriptional activator protein, LuxR-type quorum sensing receptor) (natural protein)
chain: MALVDGFLELERSSGKLEWSAILQKMASDLGFSKILFGLLPKDSQDYENAFIVGNYPAAWREHYDRAGYARVDPTVSHCTQSVLPIFWEPSIYQTRKQHEFFEEASAAGLVYGLTMPLHGARGELGALSLSVEAENRAEANRFMESVLPTLWMLKDYALQSGAGLAFEHPVSKPVVLTSREKEVLQWCAIGKTSWEISVICNCSEANVNFHMGNIRRKFGVTSRRVAAIMAVNLGLITL
notes: predicted molecular weight of the single chain 26.62 kD; Produced and kept with a small-molecule ligand: odDHL (dimer) or norlobaridone, NBD (monomer); also called LasR-odDHL; NBD-LasR; source: E. coli BL21 (pET23b, 1 mM IPTG, 18 °C overnight) in the presence of 100 μM OdDHL or 100 μM NBD; purified (heparin column, MonoQ, S200 size exclusion)
- binding: no binding
